Results published in PubChem BioAssay AID2685 (National Center for Advancing Translational Sciences (NCATS), 2010).
The campaign covered roughly 320,000 compounds. About 2,100 (0.66%) were called active. Inconclusive results, whose numbers are uncertain, are shown with a selection of clear calls. Calls come from the whole dose curve; as a rule, active = well fitted inhibition curve with a large enough effect in the signal ratio, with a control signal flat (not every such curve was filed as active); inconclusive = small, poorly fitted or top-dose-only effect, or effect the other way, or a change in a side signal; inactive = flat fitted curve, though single readings scatter; the % refers to the signal ratio. Potencies beside an inconclusive call are fits to weak or partial responses and may not hold up.

Test: qHTS Assay for Lipid Storage Modulators in Drosophila S3 Cells
Settings: BODIPY lipid droplet fluorescence, 18-24 h, cells fed with added oleic acid; lipid storage change, negative = inhibition: at 46.1 µM (top of the series) unless noted
In short: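 Laser-scanning cytometry quantifies lipid droplet accumulation (500–530 nm total intensity; droplet/cell object ratio) in oleic acid-fed (400 uM added) Drosophila S3 cells treated with a concentration series. 20 uM Triacsin C defined 100% inhibition.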
% is set by controls: 0 for no effect and ±100 for the full control effect; potency is the fitted concentration of half-maximal effect.

Row | SMILES | Potency | lipid storage change, negative = inhibition
1 | CN1C(=O)C(O)(CC(=O)c2cccs2)c2ccccc21 (stereo not given) | inconclusive: 0.13 µM [falling, full curve, poor fit] | –
2 | CC(=O)NC1C(=O)N=C(SCC(=O)NC2CCCCC2)NC1=O (stereo not given) | – | inconclusive: -3.03%
3 | O=[N+]([O-])c1ccc(Cl)c(NC2=NCCCCC2)c1 | – | inconclusive: 56.5%
4 | O=C(Nc1ccc(S(=O)(=O)N2CCCC2)cc1)c1c(F)cccc1F | inconclusive: 20.6 µM [falling, single point] | –
5 | COc1ccc(Cn2c(CCC(=O)NCCC(C)C)nc3ncccc3c2=O)cc1 | – | inconclusive: 10%
6 | O=C(NC12CC3CC(CC(C3)C1)C2)C1=COCCO1 | inconclusive: 29.1 µM [activator, single point] | –
7 | O=C(Nc1ccc2ccccc2c1)c1ccc(Cl)cc1 | active: 1.3 µM | –
8 | CCc1nnc(NC(=O)c2cc(S(=O)(=O)N(CC)CC)ccc2Cl)s1 | – | inconclusive: 8.59%
9 | O=C(c1ccccn1)N1N=C2/C(=C/c3ccc(F)cc3)CCCC2C1c1ccc(F)cc1 (stereo not given) | inconclusive: 18.4 µM [falling, single point] | –
10 | CCc1ccc(NCc2cc3c(C)nn(-c4ccccc4)c3[nH]c2=O)cc1 | – | inconclusive: -13.5%
11 | Cc1ccc(S(=O)(=O)n2c(=O)oc3ccccc32)cc1 | – | inconclusive: 11.1%
12 | Cn1c(=O)c(C(=O)CSc2nncs2)c(N)n(Cc2ccccc2)c1=O | – | inconclusive: -18.5%
13 | COc1ccc(CNC(=O)C(=O)NCC2CCCN2S(=O)(=O)c2ccccc2)cc1 (stereo not given) | inconclusive: 0.206 µM [falling, full curve, poor fit] | –
14 | CCOC(=O)c1cccc(COC(=O)c2cccc(-c3nnc(-c4ccccc4)o3)c2)c1 | – | inconclusive: -45.8%
15 | CC1Cc2c([nH]c3ccccc23)C2c3ccccc3CN12 (stereo not given) | – | inconclusive: -35.7%
16 | Cc1nc(NCc2ccc3c(c2)OCO3)c2nnn(Cc3ccccc3)c2n1 | inconclusive: 2.59 µM [rising, partial curve] | –
17 | O=c1[nH]c(NC2CCN(S(=O)(=O)c3ccccc3C(F)(F)F)CC2)nc2c1CCCC2 | – | inconclusive: -28.7%
18 | CC(C)Oc1cccc(-c2cc(C(=O)NC(=S)N(C)c3ccccc3C(=O)O)c3ccccc3n2)c1 | inconclusive: 3.66 µM [activator, partial curve, poor fit] | –
19 | COc1ccc(Cc2nc(-c3cccs3)no2)cc1OC | inconclusive: 32.6 µM [falling, partial curve, poor fit] | –
20 | O=C(N[C@@H](Cc1ccccc1)C(=O)OCc1ccccc1)c1nc[nH]c1C(=O)N1CCc2ccccc2C1 | – | inconclusive: 15.5%
21 | COCc1nc(-c2ccc(-c3ccc(OC)cc3)nc2OC)no1 | inconclusive: 1.64 µM [activator, partial curve, poor fit] | –
22 | C#CC[N+](C)(C)CCCCCCCCCCCC | inconclusive: 23.1 µM [falling, partial curve, poor fit] | –
23 | CC1Cc2ccccc2N1C(=S)NC(=O)c1cccc(Br)c1 (stereo not given) | – | inconclusive: -2.13%

Row | SMILES | Potency | lipid storage change, negative = inhibition
24 | O=C(CCNS(=O)(=O)c1c(Cl)cccc1Cl)OCC(=O)c1ccccc1 | inconclusive: 29.1 µM [rising, single point] | –
25 | CN1CCN(CCCCOc2ccccc2C=O)CC1 | – | inconclusive: -7.11%
26 | Cc1nn(Cc2ccccc2)c(Cl)c1/C=N/NC(=O)c1cccnc1 | – | inconclusive: -138%
27 | Cc1ccc(NS(=O)(=O)c2cc(OCC(N)=O)c(C)cc2Cl)cc1 | inconclusive: 0.0046 µM [rising, full curve, poor fit] | –
28 | COc1cccc(-c2nc(C(=O)NCCCN3CCOCC3)cc3c2[nH]c2ccccc23)c1 | inconclusive: 32.6 µM [falling, single point] | –
29 | COCc1cc(C)nc(SCC(=O)Nc2ccc3c(c2)n(C)c(=O)n3C)c1C#N | – | inconclusive: 3.81%
30 | CC(C)OC(=O)c1ccc(N2CCN(c3ccc(F)cc3)CC2)nc1 | – | inconclusive: 2.76%
31 | COc1ccc(-c2cc(C(=O)N3CCOCC3)c3ccccc3n2)cc1OC | – | inconclusive
32 | COc1cc(NC(=O)CSCc2ccccc2)c(C(=O)O)cc1OC | inconclusive: 23.1 µM [activator, single point] | –
33 | CCCC(O)(c1ccc(OC)cc1)C(CN(C)C)c1ccccc1 (stereo not given) | – | inconclusive: 37.6%
34 | O=C(Cc1cccc(Cl)c1)Nc1ccc(Br)cc1 | – | inconclusive: -20.5%
35 | N#Cc1nc(-c2ccc(OCc3ccccc3)cc2)oc1NCCCN1CCOCC1 | inconclusive: 1.84 µM [activator, partial curve] | –
36 | CCn1c(SCC(=O)c2ccc(O)c(O)c2)nnc1-c1ccccc1 | inconclusive: 0.0052 µM [falling, full curve, poor fit] | –
37 | COc1cc(/C=N/NC(=O)CN(CCc2ccccc2)S(=O)(=O)c2ccc(NC(C)=O)cc2)cc(OC)c1OC | – | inconclusive: 42.3%
38 | CCC1Oc2ccccc2C(=O)N(CC(=O)c2ccc3c(c2)OCCO3)C1=O (stereo not given) | inconclusive: 29.1 µM [falling, single point] | –
39 | CCCCc1nnc(NC(=O)c2ccc(S(=O)(=O)N3CCOCC3)cc2)s1 | inconclusive: 18.4 µM [activator, single point] | –
40 | CN1C(=O)/C(=C/c2cc(C(C)(C)C)c(O)c(C(C)(C)C)c2)NC1=S | – | inactive
41 | CCC(=O)NC(c1ccco1)c1cc(Cl)c2ccccc2c1O (stereo not given) | inconclusive: 1.3 µM [activator, partial curve, poor fit] | –
42 | CCN(CC(=O)NCc1ccc(Cl)cc1)C(=O)CSc1cccc(C(F)(F)F)c1 | inconclusive: 20.6 µM [falling, partial curve, poor fit] | –
43 | COC(=O)c1[nH]nc2c1C(=O)N(C1CCCCC1)C2=O | inconclusive: 20.6 µM [activator, single point] | –
44 | COc1cc(C(C(=O)NC2CCCC2)N(Cc2ccco2)C(=O)c2snc(C(N)=O)c2N)cc(OC)c1OC (stereo not given) | – | inconclusive: -21.9%
45 | O=C(Cn1cc([N+](=O)[O-])ccc1=O)NC1CCCCC1 | – | inconclusive: 20.6%

Some of the entries so far, as labelled records.
Cc1ccc(NS(=O)(=O)c2cc(OCC(N)=O)c(C)cc2Cl)cc1
  Potency: inconclusive: 0.0046 µM [rising, full curve, poor fit]
COc1cccc(-c2nc(C(=O)NCCCN3CCOCC3)cc3c2[nH]c2ccccc23)c1
  Potency: inconclusive: 32.6 µM [falling, single point]
